Here are results for seven substances from publication PMC8997158.

Amino acid sequences for entries named in this document (tags omitted). A change or cut given only in a name is not applied to a line headed by its entry.
UniProt Q9HAU4: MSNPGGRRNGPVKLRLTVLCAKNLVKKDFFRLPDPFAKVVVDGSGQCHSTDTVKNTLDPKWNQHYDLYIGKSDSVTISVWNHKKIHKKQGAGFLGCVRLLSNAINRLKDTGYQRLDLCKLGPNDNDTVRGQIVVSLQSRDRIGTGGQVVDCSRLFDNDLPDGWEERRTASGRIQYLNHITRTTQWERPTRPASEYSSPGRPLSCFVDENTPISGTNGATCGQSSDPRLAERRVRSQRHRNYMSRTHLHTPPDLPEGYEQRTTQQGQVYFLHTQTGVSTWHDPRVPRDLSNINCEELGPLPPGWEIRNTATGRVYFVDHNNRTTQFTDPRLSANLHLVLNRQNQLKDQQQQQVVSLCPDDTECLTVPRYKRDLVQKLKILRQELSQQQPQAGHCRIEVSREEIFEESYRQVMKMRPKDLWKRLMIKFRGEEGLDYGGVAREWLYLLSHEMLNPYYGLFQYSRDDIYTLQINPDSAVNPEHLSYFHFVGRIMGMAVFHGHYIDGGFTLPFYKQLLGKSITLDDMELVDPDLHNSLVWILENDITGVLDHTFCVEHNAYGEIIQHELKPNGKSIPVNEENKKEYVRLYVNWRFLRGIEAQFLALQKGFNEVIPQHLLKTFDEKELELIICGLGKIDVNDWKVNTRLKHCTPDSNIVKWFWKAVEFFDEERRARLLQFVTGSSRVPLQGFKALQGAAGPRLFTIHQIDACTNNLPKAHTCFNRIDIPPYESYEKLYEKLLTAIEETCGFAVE
UniProt Q13263: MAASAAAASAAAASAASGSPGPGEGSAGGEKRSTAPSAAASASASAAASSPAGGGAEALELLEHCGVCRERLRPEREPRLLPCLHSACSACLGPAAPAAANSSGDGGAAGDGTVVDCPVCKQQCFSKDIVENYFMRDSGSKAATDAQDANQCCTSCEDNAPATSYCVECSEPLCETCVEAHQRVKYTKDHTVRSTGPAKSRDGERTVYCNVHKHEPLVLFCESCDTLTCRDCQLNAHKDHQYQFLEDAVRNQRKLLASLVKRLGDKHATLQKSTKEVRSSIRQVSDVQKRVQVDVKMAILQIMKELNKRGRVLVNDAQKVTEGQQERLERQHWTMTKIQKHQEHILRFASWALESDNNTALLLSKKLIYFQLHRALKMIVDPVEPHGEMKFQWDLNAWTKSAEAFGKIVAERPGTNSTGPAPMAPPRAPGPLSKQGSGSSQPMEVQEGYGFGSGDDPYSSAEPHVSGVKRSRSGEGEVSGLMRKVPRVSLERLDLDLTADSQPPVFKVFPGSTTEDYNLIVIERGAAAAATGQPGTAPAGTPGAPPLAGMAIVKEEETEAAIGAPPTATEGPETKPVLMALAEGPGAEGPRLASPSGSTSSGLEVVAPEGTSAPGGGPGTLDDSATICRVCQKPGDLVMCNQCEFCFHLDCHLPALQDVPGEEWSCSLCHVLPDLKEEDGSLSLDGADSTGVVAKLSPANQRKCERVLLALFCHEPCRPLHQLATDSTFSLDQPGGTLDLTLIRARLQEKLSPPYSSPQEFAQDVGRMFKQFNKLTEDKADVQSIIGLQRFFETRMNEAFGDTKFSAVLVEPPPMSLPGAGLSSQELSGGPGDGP

These are yes or no findings as the source states them, for the method shown. For some assays here: In cells and extracts the contact can be indirect. Some binding calls cover weakened binding; strength is not graded here.

Test [1] addresses MYC-SMURF2 wild-type (SMURF2WT), expressed in HEK-293T cells (UniProt Q9HAU4). Description: co-IP; reciprocal co-IP from HEK-293T cells co-expressing FLAG-KAP1 and MYC-SMURF2 (WT or CG); anti-FLAG M2 affinity gel or anti-MYC antibody; 1% NP40 buffer (10 mM Tris pH 7.5, 150 mM NaCl, 5 mM EDTA, 10% glycerol), overnight at 4 °C.
For test [2], the target named is MYC-SMURF2CG, catalytically-inactive SMURF2 (C716G), expressed in HEK-293T cells (UniProt Q9HAU4). The description is as above.
The target in test [3] is endogenous KAP1 of U2OS cells (human (endogenous in U2OS)) (UniProt Q13263). Description: proximity ligation; Duolink in situ PLA in U2OS cells transiently transfected with MYC-SMURF2; anti-MYC and anti-KAP1 antibodies; MYC-Empty vector as control.
The target of test [4] is GST-SMURF2 (wild-type), purified from bacteria (UniProt Q9HAU4). Briefly: pull-down; in vitro GST pull-down: FLAG-KAP1 co-incubated with GST-SMURF2 in 50 mM Tris-HCl pH 7.5, 120 mM NaCl, 2 mM EDTA, 0.1% Nonidet P40 substitute, 37 °C, 15 min; GST-SMURF2 pulled down on Glutathione Sepharose 4B; blots with anti-SMURF2 and anti-KAP1; both purified.
The target in test [5] is N-terminal FLAG-tagged KAP1 (FLAG-KAP1), expressed in HEK-293T cells (UniProt Q13263). Briefly: co-IP; reciprocal co-IP from HEK-293T cells co-expressing FLAG-KAP1 and MYC-SMURF2 (WT or CG); anti-FLAG M2 affinity gel or anti-MYC antibody; 1% NP40 buffer (10 mM Tris pH 7.5, 150 mM NaCl, 5 mM EDTA, 10% glycerol), overnight at 4 °C.
The target of test [6] is KAP1 in the co-immunoprecipitation from U2OS cells (UniProt Q13263). Description: co-IP; co-IP from U2OS cells (Figure S1); who was precipitated is not given.
Test [7] addresses endogenous SMURF2 of HEK-293T cells (human (endogenous in HEK-293T)) (UniProt Q9HAU4). Description: co-IP; endogenous co-IP from HEK-293T cells; IP with anti-SMURF2 antibody, isotype IgG as control; 0.5% NP40 buffer (10 mM Tris pH 7.5, 150 mM NaCl, 5 mM EDTA, 10% glycerol), overnight at 4 °C.

Take “N-terminal FLAG-tagged KAP1 (FLAG-KAP1), expressed in HEK-293T cells (from UniProt Q13263 1-835)”: the binding entry in test [1] and in test [2] was “binds” in each case.
Turning to “MYC-SMURF2, expressed in U2OS cells (from UniProt Q9HAU4 1-748) (enzyme)”, the binding result in test [3] was “binds”.
Regarding “FLAG-KAP1 produced in the TNT SP6 high-yield wheat germ expression system (from UniProt Q13263 1-835)”, the binding entry in test [4] is “binds”.
“MYC-SMURF2 wild-type (SMURF2WT), expressed in HEK-293T cells (from UniProt Q9HAU4 1-748) (enzyme)”: the binding result in test [5] is given as “binds”.
On the same count and under the same terms, next, “MYC-SMURF2CG, catalytically-inactive SMURF2 (C716G), expressed in HEK-293T cells (from UniProt Q9HAU4 1-748) (enzyme)”: “binds”.
In the case of “SMURF2 in the co-immunoprecipitation from U2OS cells (from UniProt Q9HAU4 1-748) (enzyme)”, the binding entry in test [6] is listed as “binds”.
On to “endogenous KAP1 of HEK-293T cells (from UniProt Q13263 1-835)”, for which, in test [7], the binding entry is on record as “binds”.
